## Melanoma cell counts after drug treatment

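Human melanoma cells were exposed to a pair of drugs for 72 h in 1,536-well plates and read by automated microscopy after fixing and staining. Values are the number of DAPI-stained nuclei as a percentage of the DMSO control: 100 is no effect, lower means fewer cells. Every drug was used at one fixed concentration, the higher of two screened. These are primary screening values without error estimates.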 Only some of the drugs and lines screened are listed, without regard to their results.

Drug key:
indole-3-carbinol (4 µM): OCc1c[nH]c2ccccc12
dovitinib (0.5 µM): CN1CCN(c2ccc3nc(-c4c(N)c5c(F)cccc5[nH]c4=O)[nH]c3c2)CC1
sunitinib (2 µM): CCN(CC)CCNC(=O)c1c(C)[nH]c(/C=C2\C(=O)Nc3ccc(F)cc32)c1C
IMD-0354 (0.08 µM): O=C(Nc1cc(C(F)(F)F)cc(C(F)(F)F)c1)c1cc(Cl)ccc1O
BI-78D3 (1 µM): O=c1[nH]nc(Sc2ncc([N+](=O)[O-])s2)n1-c1ccc2c(c1)OCCO2
lapatinib (4 µM): CS(=O)(=O)CCNCc1ccc(-c2ccc3ncnc(Nc4ccc(OCc5cccc(F)c5)c(Cl)c4)c3c2)o1
FH535 (5 µM): Cc1cc([N+](=O)[O-])ccc1NS(=O)(=O)c1cc(Cl)ccc1Cl
tanespimycin (0.01 µM): C=CCNC1=C2C[C@@H](C)C[C@H](OC)[C@H](O)[C@@H](C)/C=C(\C)[C@H](OC(N)=O)[C@@H](OC)/C=C\C=C(/C)C(=O)NC(=CC1=O)C2=O

| # | Combination | WM3619 | WM451Lu | COLO 800 | COLO 792 | C32 | COLO 829 |
|---|---|---|---|---|---|---|---|
| 1 | FH535 and lapatinib | 52.8 | 87.5 | 34.0 | 47.0 | 60.1 | 73.6 |
| 2 | lapatinib and sunitinib | 46.7 | 49.7 | 43.1 | 39.6 | 77.7 | 103 |
| 3 | BI-78D3 and lapatinib | 87.2 | 85.8 | 47.5 | 85.7 | 61.5 | 62.9 |
| 4 | IMD-0354 and tanespimycin | 44.1 | 75.0 | 96.3 | 73.3 | 24.4 | 105 |
| 5 | tanespimycin and sunitinib | 50.1 | 44.1 | 45.4 | 26.1 | 16.3 | 87.0 |
| 6 | BI-78D3 and FH535 | 78.0 | 86.7 | 94.2 | 60.9 | 103 | 77.6 |
| 7 | IMD-0354 and sunitinib | 95.8 | 64.6 | 61.9 | 61.3 | 82.3 | 140 |
| 8 | dovitinib and tanespimycin | 48.2 | 81.0 | 67.6 | 52.5 | 25.4 | 74.2 |
| 9 | sunitinib and indole-3-carbinol | 65.9 | 54.2 | 43.2 | 47.1 | 72.0 | 120 |
| 10 | indole-3-carbinol and FH535 | 82.9 | 82.6 | 79.2 | 71.3 | 88.3 | 83.6 |
| 11 | IMD-0354 and BI-78D3 | 83.7 | 87.8 | 106 | 79.8 | 81.5 | 86.5 |
| 12 | IMD-0354 and FH535 | 79.1 | 107 | 94.1 | 85.3 | 105 | 75.4 |
| 13 | dovitinib and sunitinib | 57.6 | 73.8 | 42.6 | 31.8 | 69.8 | 79.4 |
| 14 | dovitinib and indole-3-carbinol | 62.1 | 100 | 77.6 | 84.8 | 84.8 | 60.9 |
| 15 | tanespimycin and FH535 | 51.1 | 89.9 | 85.7 | 44.4 | 8.1 | 68.5 |
| 16 | lapatinib and dovitinib | 74.9 | 94.9 | 55.1 | 53.5 | 89.3 | 54.7 |
| 17 | indole-3-carbinol and BI-78D3 | 71.8 | 107 | 72.3 | 89.0 | 82.7 | 78.9 |
| 18 | tanespimycin and lapatinib | 72.8 | 85.4 | 41.2 | 50.1 | 34.1 | 52.8 |
| 19 | tanespimycin and BI-78D3 | 60.1 | 60.1 | 70.0 | 68.9 | 22.1 | 80.0 |
| 20 | dovitinib and BI-78D3 | 63.3 | 87.5 | 24.5 | 64.7 | 66.7 | 67.8 |
| 21 | indole-3-carbinol and lapatinib | 81.0 | 94.1 | 54.8 | 64.1 | 84.9 | 82.1 |
| 22 | BI-78D3 and sunitinib | 68.2 | 52.5 | 47.3 | 53.8 | 65.5 | 107 |
| 23 | lapatinib and IMD-0354 | 84.2 | 126 | 65.4 | 80.9 | 80.7 | 88.4 |
| 24 | FH535 and dovitinib | 111 | 93.6 | 49.7 | 55.3 | 60.9 | 75.2 |
| 25 | IMD-0354 and dovitinib | 73.6 | 85.6 | 42.1 | 56.2 | 80.8 | 53.1 |
| 26 | indole-3-carbinol and tanespimycin | 62.2 | 76.7 | 80.9 | 75.1 | 18.0 | 87.9 |
| 27 | indole-3-carbinol and IMD-0354 | 101 | 76.0 | 90.4 | 83.3 | 104 | 120 |

Once more, the final 3:

Combination,WM3619,WM451Lu,COLO 800,COLO 792,C32,COLO 829
IMD-0354 and dovitinib,73.6,85.6,42.1,56.2,80.8,53.1
indole-3-carbinol and tanespimycin,62.2,76.7,80.9,75.1,18.0,87.9
indole-3-carbinol and IMD-0354,101,76.0,90.4,83.3,104,120

From a melanoma drug combination screen (doi:10.1371/journal.pone.0140310); values rounded.